Results on one substance are retold here after publication PMC7755605.

Results are given in words; binding and its absence hold for the method and conditions named. Binding seen in cells or lysates may run through a third protein. Binding calls can cover weak binding; strength is not graded here. Sequences can lack the tags named with a protein.

Experiment [1] deals with T1, GST-tagged RING domain deficient TRAF6 with coiled-coil domain and TRAF-C domain (289-530aa) (mouse) (UniProt P70196).
T1 sequence: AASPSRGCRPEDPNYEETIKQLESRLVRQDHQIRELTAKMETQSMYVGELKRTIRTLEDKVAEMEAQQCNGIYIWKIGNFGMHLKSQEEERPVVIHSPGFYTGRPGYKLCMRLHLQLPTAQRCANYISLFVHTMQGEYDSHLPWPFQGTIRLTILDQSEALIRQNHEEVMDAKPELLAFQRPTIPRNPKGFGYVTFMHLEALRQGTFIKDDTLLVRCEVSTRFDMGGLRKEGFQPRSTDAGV
Nature of the experiment: pull-down; 5 ug GST fusion protein on glutathione sepharose 4B beads incubated with lysate of HEK cells transfected with Np65-GFP, 1 h at 4 C, 500 ul RIPA lysis buffer; immunoblot; only the target purified.

For experiment [2], the target named is T2, N-terminally GST-tagged TRAF6 (mouse) (UniProt P70196).
T2 sequence: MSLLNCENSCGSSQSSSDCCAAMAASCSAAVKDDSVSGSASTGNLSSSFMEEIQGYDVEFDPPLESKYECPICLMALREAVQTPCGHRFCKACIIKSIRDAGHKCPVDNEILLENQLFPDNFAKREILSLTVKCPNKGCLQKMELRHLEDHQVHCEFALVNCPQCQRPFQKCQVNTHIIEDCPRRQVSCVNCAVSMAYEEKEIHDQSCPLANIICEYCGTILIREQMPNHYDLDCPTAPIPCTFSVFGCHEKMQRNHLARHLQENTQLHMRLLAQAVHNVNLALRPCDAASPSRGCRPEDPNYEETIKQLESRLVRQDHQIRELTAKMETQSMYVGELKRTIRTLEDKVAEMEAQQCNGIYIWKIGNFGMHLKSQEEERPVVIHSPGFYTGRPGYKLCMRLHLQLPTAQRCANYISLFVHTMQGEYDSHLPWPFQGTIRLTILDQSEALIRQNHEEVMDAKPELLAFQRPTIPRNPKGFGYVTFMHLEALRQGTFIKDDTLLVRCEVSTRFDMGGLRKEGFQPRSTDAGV
The description is as above.

For “GFP-tagged neuroplastin 65 with the DDEP insert (from UniProt P97546-2)”, the binding result in experiment [1] and in experiment [2] was “binds” in each case.
